Source: PubChem BioAssay (NCI)
This list holds what a sample rich in hits left over. The source made the active and inactive calls. Rule as the data show it: active = growth inhibition above about 70%; inactive = the rest.

Legend:
[1] = NCI Yeast Anticancer Drug Screen. Data for the rad52 strain (AID 147);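 also: 0% = growth of vehicle-treated control cultures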; settings: S. cerevisiae rad52 mutant growth inhibition, active compounds read high
Method in brief: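 Genetically altered yeast (DNA damage repair defect) treated with compound; inhibition calculated relative to vehicle.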

[2] = NCI Yeast Anticancer Drug Screen. Data for the wt1 strain (AID 149);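 also: 0% = growth of vehicle-treated wt1 cultures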; settings: S. cerevisiae wt1 strain (SPY 50644) growth inhibition, active compounds read high
Method in brief: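 wt1 strain grown with compound or vehicle; inhibition taken from the growth difference.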

[3] = NCI Yeast Anticancer Drug Screen. Data for the mgt1 strain (AID 153); settings: S. cerevisiae mgt1 mutant growth inhibition, active compounds read high
Method in brief: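 Read-out: yeast growth inhibition vs vehicle control. Strain mgt1, drawn from a panel altered in DNA damage repair or cell cycle control.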

[4] = NCI Yeast Anticancer Drug Screen. Data for the rad14 strain (AID 159);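 also: 0% = growth of vehicle-treated control cultures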; settings: S. cerevisiae rad14 strain growth inhibition, active compounds read high
Method in brief: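 DNA repair-defective yeast, compound-exposed; % growth inhibition derived by comparison with vehicle-treated controls.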

[5] = NCI Yeast Anticancer Drug Screen. Data for the CLN2oe strain (AID 163);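 also: 0% = growth of vehicle-only control cultures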; settings: S. cerevisiae CLN2oe strain, active compounds read high
Method in brief: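 Strain altered in cell-cycle control, incubated with compound; growth compared to solvent-treated controls.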

[6] = NCI Yeast Anticancer Drug Screen. Data for the wt2 strain (AID 169);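 also: 0% = growth of vehicle-treated yeast cultures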; settings: S. cerevisiae wt2 strain growth inhibition, active compounds read high
Method in brief: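 Steps: yeast strain treated with compound; growth recorded; inhibition calculated relative to cultures given vehicle alone.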

[7] = NCI Yeast Anticancer Drug Screen. Data for the mlh1 strain (AID 171);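 also: 0% = growth of vehicle-treated control cultures of the same strain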; settings: S. cerevisiae mlh1 strain growth inhibition, active compounds read high
Method in brief: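 Yeast screen: mutant strain plus compound, growth scored against vehicle control wells.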

[8] = NCI Yeast Anticancer Drug Screen. Data for the sgs1 strain (AID 173);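 also: 0% = growth of vehicle-only control cultures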; settings: S. cerevisiae sgs1 mutant, active compounds read high
Method in brief: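 Inhibition of yeast growth served as the measure. The mutant strain was treated with each compound, and growth was normalised to cultures receiving vehicle alone.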

[9] = NCI Yeast Anticancer Drug Screen. Data for the rad18 strain (AID 177); settings: S. cerevisiae rad18 mutant growth inhibition, active compounds read high
Method in brief: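 Inhibition values reflect reduced yeast growth compared with vehicle-treated controls, using a strain engineered with a DNA damage repair defect.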

[10] = NCI Yeast Anticancer Drug Screen. Data for the rad50EPP+ strain (AID 151);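 also: 0% = growth of vehicle-treated control cultures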; settings: S. cerevisiae rad50 mutant strain, active compounds read high
Method in brief: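 Strain rad50EPP+; compound exposure; % growth inhibition vs vehicle.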

Measured: growth inhibition

O=C(O)CCc1c2ccc(=O)c(O)c-2oc2c(O)c(O)ccc12
inactive: [1]; at 1.2 µM -3% | [1]; at 3.7 µM -6% | [1]; at 11.0 µM -6% | [1]; at 33.0 µM -5% | [1]; at 100.0 µM 2% | [2]; at 1.2 µM 1% | [2]; at 3.7 µM 1% | [2]; at 11.0 µM 5% | [2]; at 33.0 µM 8% | [2]; at 100.0 µM 9% | [3]; at 1.2 µM 0% | [3]; at 3.7 µM 0% | [3]; at 11.0 µM 0% | [3]; at 33.0 µM 1% | [3]; at 100.0 µM 2% | [4]; at 1.2 µM -1% | [4]; at 3.7 µM -8% | [4]; at 11.0 µM -16% | [4]; at 33.0 µM -49% | [4]; at 100.0 µM 1% | [5]; at 1.2 µM 1% | [5]; at 3.7 µM -1% | [5]; at 11.0 µM -12% | [5]; at 33.0 µM -20% | [5]; at 100.0 µM -15% | [6]; at 1.2 µM -1% | [6]; at 3.7 µM 1% | [6]; at 11.0 µM 1% | [6]; at 33.0 µM 10% | [6]; at 100.0 µM 13% | [7]; at 1.2 µM -1% | [7]; at 3.7 µM 1% | [7]; at 11.0 µM -2% | [7]; at 33.0 µM -14% | [7]; at 100.0 µM 2% | [8]; at 1.2 µM 1% | [8]; at 3.7 µM 2% | [8]; at 11.0 µM 3% | [8]; at 33.0 µM 9% | [8]; at 100.0 µM 13% | [9]; at 1.2 µM -17% | [9]; at 3.7 µM -11% | [9]; at 11.0 µM -51% | [9]; at 33.0 µM -57% | [9]; at 100.0 µM -7%

Cc1cc(N2CCN(C)CC2)n2nc(-c3ccc(Cl)cc3)nc2n1
inactive: [1]; at 1.2 µM -2% | [1]; at 3.7 µM -2% | [1]; at 11.0 µM -4% | [1]; at 33.0 µM -2% | [1]; at 100.0 µM -4% | [2]; at 1.2 µM -2% | [2]; at 3.7 µM -2% | [2]; at 11.0 µM 0% | [2]; at 33.0 µM -3% | [2]; at 100.0 µM -4% | [3]; at 1.2 µM -2% | [3]; at 3.7 µM -19% | [3]; at 11.0 µM -5% | [3]; at 33.0 µM -8% | [3]; at 100.0 µM -11% | [4]; at 1.2 µM -4% | [4]; at 3.7 µM -3% | [4]; at 11.0 µM -2% | [4]; at 33.0 µM -1% | [4]; at 100.0 µM 0% | [5]; at 1.2 µM -3% | [5]; at 3.7 µM 0% | [5]; at 11.0 µM 1% | [5]; at 33.0 µM 0% | [5]; at 100.0 µM 0% | [6]; at 1.2 µM -3% | [6]; at 3.7 µM -4% | [6]; at 11.0 µM -3% | [6]; at 33.0 µM -3% | [6]; at 100.0 µM -4% | [7]; at 1.2 µM -3% | [7]; at 3.7 µM -1% | [7]; at 11.0 µM 2% | [7]; at 33.0 µM -2% | [7]; at 100.0 µM -23% | [8]; at 1.2 µM -1% | [8]; at 3.7 µM -1% | [8]; at 11.0 µM 1% | [8]; at 33.0 µM -3% | [8]; at 100.0 µM -2% | [9]; at 1.2 µM 0% | [9]; at 3.7 µM -2% | [9]; at 11.0 µM -3% | [9]; at 33.0 µM -14% | [9]; at 100.0 µM -20%

CN1C(=O)C(CC(N)=O)NC1=S (stereo not given)
inactive: [1]; at 1.2 µM 0% | [1]; at 3.7 µM -1% | [1]; at 11.0 µM 0% | [1]; at 33.0 µM 4% | [1]; at 100.0 µM 16% | [2]; at 1.2 µM -1% | [2]; at 3.7 µM -2% | [2]; at 11.0 µM 1% | [2]; at 33.0 µM 2% | [2]; at 100.0 µM 7% | [10]; at 1.2 µM 1% | [10]; at 3.7 µM 0% | [10]; at 11.0 µM -1% | [10]; at 33.0 µM -6% | [10]; at 100.0 µM -6% | [3]; at 1.2 µM -2% | [3]; at 3.7 µM -4% | [3]; at 11.0 µM -2% | [3]; at 33.0 µM 18% | [3]; at 100.0 µM 11% | [4]; at 1.2 µM -1% | [4]; at 3.7 µM 0% | [4]; at 11.0 µM 5% | [4]; at 33.0 µM 11% | [4]; at 100.0 µM 28% | [5]; at 1.2 µM -3% | [5]; at 3.7 µM 0% | [5]; at 11.0 µM 2% | [5]; at 33.0 µM -1% | [5]; at 100.0 µM -1% | [6]; at 1.2 µM 0% | [6]; at 3.7 µM -1% | [6]; at 11.0 µM 4% | [6]; at 33.0 µM 5% | [6]; at 100.0 µM 11% | [7]; at 1.2 µM -1% | [7]; at 3.7 µM -1% | [7]; at 11.0 µM 1% | [7]; at 33.0 µM 5% | [7]; at 100.0 µM 25% | [8]; at 1.2 µM -1% | [8]; at 3.7 µM 4% | [8]; at 11.0 µM 8% | [8]; at 33.0 µM 16% | [8]; at 100.0 µM 44% | [9]; at 1.2 µM 0% | [9]; at 3.7 µM 1% | [9]; at 11.0 µM -1% | [9]; at 33.0 µM 11% | [9]; at 100.0 µM 30%

COc1cccc(/C=C2/S/C(=N/Nc3nc(C)c(C(C)=O)s3)NC2=O)c1O
inactive: [1]; at 1.2 µM 0% | [1]; at 3.7 µM 3% | [1]; at 11.0 µM 7% | [1]; at 33.0 µM 10% | [1]; at 100.0 µM 32% | [2]; at 1.2 µM 1% | [2]; at 3.7 µM 3% | [2]; at 11.0 µM 4% | [2]; at 33.0 µM 12% | [2]; at 100.0 µM 22% | [3]; at 1.2 µM -1% | [3]; at 3.7 µM -2% | [3]; at 11.0 µM 2% | [3]; at 33.0 µM 1% | [3]; at 100.0 µM 56% | [4]; at 1.2 µM 1% | [4]; at 3.7 µM -1% | [4]; at 11.0 µM 8% | [4]; at 33.0 µM 17% | [4]; at 100.0 µM 42% | [5]; at 1.2 µM -5% | [5]; at 3.7 µM -7% | [5]; at 11.0 µM -5% | [5]; at 33.0 µM 10% | [5]; at 100.0 µM 20% | [6]; at 1.2 µM -1% | [6]; at 3.7 µM 0% | [6]; at 11.0 µM 5% | [6]; at 33.0 µM 17% | [6]; at 100.0 µM 45% | [7]; at 1.2 µM -1% | [7]; at 3.7 µM 1% | [7]; at 11.0 µM 6% | [7]; at 33.0 µM 30% | [7]; at 100.0 µM 52% | [8]; at 1.2 µM 2% | [8]; at 3.7 µM 6% | [8]; at 11.0 µM 17% | [8]; at 33.0 µM 47% | [8]; at 100.0 µM 63% | [9]; at 1.2 µM -2% | [9]; at 3.7 µM 0% | [9]; at 11.0 µM 5% | [9]; at 33.0 µM 15% | [9]; at 100.0 µM 38%
